Results published in the supplement of paper PMC12823440, “Inhibitors supercharge kinase turnover through native proteolytic circuits” (Nature, 2025).
Structures can show the parent of a compound that is named as a salt. Some of the results follow. The calls rarely recur for the same compound in another form.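 Kinases were expressed as nanoluciferase fusions in K562 cells and luminescence was read every 4 h between 2 and 18 h as percent of control, DMSO set to 100% and a positive control to 0%. A time point counts as decreased when the signal drops significantly (2 sigma). The hit call is the authors' own, does not follow from the count of time points alone, and its rule is not shown.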

The chains behind the UniProt entries cited, without tags or fusion partners.
UniProt Q00535, whole entry, looked up: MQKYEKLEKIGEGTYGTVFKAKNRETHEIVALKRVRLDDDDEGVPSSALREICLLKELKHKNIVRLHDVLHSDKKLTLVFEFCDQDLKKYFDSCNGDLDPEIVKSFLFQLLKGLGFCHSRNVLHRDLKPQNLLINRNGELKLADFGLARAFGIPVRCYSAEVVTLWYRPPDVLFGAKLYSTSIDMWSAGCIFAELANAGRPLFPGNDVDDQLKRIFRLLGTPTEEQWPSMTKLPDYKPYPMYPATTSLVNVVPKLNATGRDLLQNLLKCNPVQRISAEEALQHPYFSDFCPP

What follows are compounds tested against CDK5 (UniProt Q00535) (assay: kinase-Nluc reporter destabilization hit call (1 = scored as downregulated) (binary); higher = compound decreases kinase abundance). Conditions: K562; 2-18 h.

kinase-Nluc reporter destabilization hit call, inactive:
CCc1nc(-c2cccc(C)c2)c(-c2ccnc(NC(=O)c3ccccc3)c2)s1 (10 µM) 0
CCOc1cc2ncc(-c3cc(N)nc(F)c3)n2cc1S(=O)(=O)C(C)(C)C (10 µM) 0
CC(C)(/C=C(\C#N)C(=O)N1CCC[C@@H](n2nc(-c3ccc(Oc4ccccc4)cc3F)c3c(N)ncnc32)C1)N1CCN(C2COC2)CC1 (2.5 µM) 0
Brc1c(Br)c(Br)c2n[nH]nc2c1Br (10 µM) 0
Nc1nc(OCC2CCCCC2)c2[nH]cnc2n1 (10 µM) 0
COc1ccc(Oc2cc(NCCC(F)(F)F)c3ncc(-c4ccc(C(=O)NC5CC5)c(C)c4)n3n2)c(F)c1F (2.5 µM) 0
COc1cc(C(=O)NC2CCN(C)CC2)c(F)cc1Nc1ncc2c(n1)N(C1CCCC1)CC(F)(F)C(=O)N2C [TAK-960 (dihydrochloride)] (2.5 µM) 0
COc1ccc(NC(=O)N2CCN(c3nc(N)nc4c3cnn4C)[C@@H](C)C2)c(C)c1 (10 µM) 0
O=C(Nc1ccc(-c2ccnc(Nc3ccc(N4CCOCC4)cc3)n2)cc1)C1CCCN1 (configuration not stated) (10 µM) 0
COc1nccc(-c2c(-c3ccc(F)cc3)ncn2C2CCC(O)CC2)n1 (configuration not stated) (10 µM) 0
NC(=O)c1ccc2nc(-c3ccc(Oc4ccc(Cl)cc4)cc3)[nH]c2c1 (10 µM) 0
Cc1cc(C)c(/C=C2\C(=O)Nc3ccccc32)[nH]1 [Semaxinib] (10 µM) 0
COc1ccc(COc2ccc(Cc3cnc(N)nc3N)cc2OC)cc1 (10 µM) 0
CN1CCN(c2ccc(Nc3cc(-c4cccc(-n5ccc6cc(C7CC7)cc(F)c6c5=O)c4CO)cn(C)c3=O)nc2)CC1 (2.5 µM) 0
C=CC(=O)N1CCC[C@@H](n2nc(-c3ccc(Oc4ccccc4)cc3)c(C(N)=O)c2N)C1 [Btk inhibitor 2] (10 µM) 0
Cc1c(NC(=O)c2cc3c(s2)CCCC3)cccc1-c1cn(C)c(=O)c(Nc2ccc([C@@H]3C(=O)N(C)CCN3C)cc2)n1 (10 µM) 0
CCOc1ccn(-c2ccc(F)cc2)c(=O)c1C(=O)Nc1ccc(Oc2ccnc(N)c2Cl)c(F)c1 (10 µM) 0
CCn1c(=O)c2cc(C(N)=O)c(N)nc2n(C2CC2)c1=O (10 µM) 0
COc1cc(C(=O)NC2CCN(C)CC2)ccc1Nc1ncc2c(n1)N(C1CCCC1)CC(F)(F)C(=O)N2C (10 µM) 0
CCN1CCN(c2ccc(Nc3cc(N(C)C(=O)Nc4c(Cl)c(OC)cc(OC)c4Cl)ncn3)cc2)CC1 [Infigratinib] (10 µM) 0
CN1CCN(S(=O)(=O)c2ccc(-c3cnc(N)c(C(=O)Nc4cccnc4)n3)cc2)CC1 (10 µM) 0
Cc1cccc([C@@H](CO)NC(=O)[C@@H](C)N2Cc3ccc(-c4nc(NC5CCOCC5)ncc4Cl)cc3C2=O)c1 [ERK1/2 inhibitor 1] (10 µM) 0
COc1cc(CCc2cc(-c3nc4ccc(N5CCN(C)CC5)cc4[nH]3)n[nH]2)cc(OC)c1 (10 µM) 0
Cc1cc(CS(=O)(=O)c2ccccc2)cc(OCc2ccc(CN3CCC[C@@H]3CO)cc2)c1 [PF-543 (Citrate)] (10 µM) 0
Cc1[nH]c(/C=C2\C(=O)Nc3ccc(S(=O)(=O)Cc4c(Cl)cccc4Cl)cc32)c(C)c1C(=O)N1CCC[C@@H]1CN1CCCC1 (2.5 µM) 0
Cc1cc(F)c(C(=O)Nc2cccc(-c3nncn3C(C)C)n2)cc1-n1cnc(C2CC2)c1 [Selonsertib] (10 µM) 0
COCCOc1cc2nccc(Nc3n[nH]c(C)c3C)c2cc1S(=O)(=O)C(C)(C)C [RIP2 kinase inhibitor 2] (2.5 µM) 0

Three compounds out of the list, ordered by number of heavy atoms, rising.
kinase-Nluc reporter destabilization hit call, inactive:
CN1CCN(S(=O)(=O)c2ccc(-c3cnc(N)c(C(=O)Nc4cccnc4)n3)cc2)CC1 (10 µM) 0
Cc1cc(F)c(C(=O)Nc2cccc(-c3nncn3C(C)C)n2)cc1-n1cnc(C2CC2)c1 [Selonsertib] (10 µM) 0
CCOc1ccn(-c2ccc(F)cc2)c(=O)c1C(=O)Nc1ccc(Oc2ccnc(N)c2Cl)c(F)c1 (10 µM) 0
